Results deposited as PubChem BioAssay AID602196 (INSERM, 2012)
Aim: 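Knock-downs that protect lung cancer cells from cisplatin or sensitise them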. System: human A549 lung cancer cells. Reagent: siRNA pair against human genes. Timing: 48 h transfection before cisplatin; time from cisplatin to read-out not stated. Conditions: cisplatin at a dose killing half of control-siRNA cells; exact dose and duration not given. Read-out: 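Shift in cisplatin death relative to control siRNA, from -50 (all cells die) to +50 (no cells die); siRNAs harmful on their own scored 0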. Reading the numbers: two-siRNA summed score (-2 to +2): higher = both siRNAs protect from cisplatin killing; -2 means both sensitise. Active means: 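siRNAs harmful alone (LDH or WST-1) get 0; others get +1 for less and -1 for more cisplatin killing; genes are active when the two siRNAs give the same sign, summing to ±2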. Calls: active = both siRNAs shift cisplatin killing the same way; inactive = no consistent shift, or siRNA harmful alone.
Shown is an unselected part of about 23,000 reagents. 455 of them (2%) were called active. 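Active includes both protection and sensitisation; some change values fall well beyond the stated -50 to +50 range.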 Further read-outs or replicates are left out here. Not given: the amount of reagent.

gene symbol	two-siRNA summed score (-2 to +2)	activity call
LRCH4	0	inactive
YWHAEP7	0	inactive
COL1A1 (collagen type I alpha 1 chain)	-1	inactive
PCSK1N (proprotein convertase subtilisin/kexin type 1 inhibitor)	-1	inactive
LINC00200 (long independently transcribed non-coding RNA 200)	1	inactive
S100A16 (S100 calcium binding protein A16)	0	inactive
CRTC2 (CREB regulated transcription coactivator 2)	0	inactive
KNDC1 (kinase non-catalytic C-lobe domain containing 1)	0	inactive
AVPR2 (arginine vasopressin receptor 2)	0	inactive
ZMYND15 (zinc finger MYND-type containing 15)	0	inactive
SYT11 (synaptotagmin 11)	0	inactive
UGT2B17 (UDP glucuronosyltransferase family 2 member B17)	1	inactive
CLSTN2 (calsyntenin 2)	0	inactive
GAPDHS (glyceraldehyde-3-phosphate dehydrogenase, spermatogenic)	-1	inactive
NMT2 (N-myristoyltransferase 2)	-1	inactive
ITGA9 (integrin subunit alpha 9)	0	inactive
EPM2AIP1 (EPM2A interacting protein 1)	1	inactive
PRICKLE4 (prickle planar cell polarity protein 4)	0	inactive
CHMP2B (charged multivesicular body protein 2B)	0	inactive
KIAA2025	0	inactive
GABRR3 (gamma-aminobutyric acid type A receptor subunit rho3)	0	inactive
PGM3 (phosphoglucomutase 3)	0	inactive
MCF2 (MCF.2 cell line derived transforming sequence)	1	inactive
CFHR1 (complement factor H related 1)	0	inactive
PRSS16 (serine protease 16)	-2	active
LOC391669	0	inactive
FBF1 (Fas binding factor 1)	0	inactive
MTERF1 (mitochondrial transcription termination factor 1)	1	inactive
ANKRD53 (ankyrin repeat domain 53)	0	inactive
CNTN2 (contactin 2)	-1	inactive
KRT83 (keratin 83)	0	inactive

Continued, starting with the last 5 of the part before.
gene symbol	two-siRNA summed score (-2 to +2)	activity call
FBF1 (Fas binding factor 1)	0	inactive
MTERF1 (mitochondrial transcription termination factor 1)	1	inactive
ANKRD53 (ankyrin repeat domain 53)	0	inactive
CNTN2 (contactin 2)	-1	inactive
KRT83 (keratin 83)	0	inactive
HOATZ (HOATZ cilia and flagella associated protein)	1	inactive
CEND1 (cell cycle exit and neuronal differentiation 1)	0	inactive
CD1D (CD1d molecule)	0	inactive
PHEX (phosphate regulating endopeptidase X-linked)	-1	inactive
FAM86C1P (family with sequence similarity 86 member C1, pseudogene)	0	inactive
PRR13 (proline rich 13)	0	inactive
ELOA3P (elongin A3, pseudogene)	0	inactive
LOC442133	1	inactive
LOC402117	0	inactive
MAD1L1 (mitotic arrest deficient 1 like 1)	0	inactive
LOC127406	1	inactive
ABCE1 (ATP binding cassette subfamily E member 1)	-1	inactive
SULF2 (sulfatase 2)	0	inactive
DDX49 (DEAD-box helicase 49)	0	inactive
RSAD2 (radical S-adenosyl methionine domain containing 2)	0	inactive
NPAS3 (neuronal PAS domain protein 3)	0	inactive
VNN2 (vanin 2)	0	inactive
LOC400856	0	inactive
ISLR (immunoglobulin superfamily containing leucine rich repeat)	-1	inactive
CHLSN (cholesin)	0	inactive
LOC389318	0	inactive
LOC387846	0	inactive
ABAT (4-aminobutyrate aminotransferase)	0	inactive
FAM226A (family with sequence similarity 226 member A)	1	inactive
CLDN3 (claudin 3)	-1	inactive
TGFBI (transforming growth factor beta induced)	0	inactive
LACTB (lactamase beta)	0	inactive
GNPTAB	0	inactive
LOC441136	0	inactive
DTL (denticleless E3 ubiquitin protein ligase adapter)	0	inactive
MVB12B (multivesicular body subunit 12B)	1	inactive
FZD6 (frizzled class receptor 6)	0	inactive
GOLT1A (golgi transport 1A)	2	active
TRIM59 (tripartite motif containing 59)	0	inactive
MTMR1 (myotubularin related protein 1)	0	inactive
INSM1 (INSM transcriptional repressor 1)	0	inactive
MYH7 (myosin heavy chain 7)	0	inactive
NR3C2 (nuclear receptor subfamily 3 group C member 2)	-1	inactive
RIBC2 (RIB43A domain with coiled-coils 2)	0	inactive
PVR (PVR cell adhesion molecule)	0	inactive
BCL9L (BCL9 like)	1	inactive
ACTR8 (actin related protein 8)	0	inactive
